Literature values, collected in article PMC11223151 (ACS Omega, 2024).

Conditions: acidic or neutral pH, i.e., water; cited from earlier work

In the case of `COc1cc(/C=C/C(=O)CC(=O)/C=C/c2ccc(O)c(OC)c2)ccc1O` [curcumin], the solubility is given as “insoluble”.
